Data on one compound can be found in publication PMC12030426, “Translational Pharmacokinetic-Pharmacodynamic Modeling of a Novel Oral Dihydroorotate Dehydrogenase (DHODH) Inhibitor, HOSU-53 (JBZ-001)” (Pharmaceutics, 2025).

The amount applied is not stated for every result.

This data set concerns plasma DHO. Nature of the data set: population PD model (indirect turnover, plasma DHO), mouse. The following applies: model estimate (RSE %). The class given is in vivo. The method, then:
To develop the PK/PD models, a sequential approach was tested for dog data, involving the initial construction of the PK model, fixing the PK parameters with population estimated thetas and eta variances, and then estimating the PD parameters. For mouse and rat data, a simultaneous approach was employed, estimating PK and PD parameters concurrently, assuming log-normal distribution for both. To account for the delay in PD response that results from the inhibition of DHODH, the factor controlling the dissipation of the response, various modeling approaches were employed. One approach involved using an effect compartment model with an equilibrium half-life parameter ( ke0 ) to characterize the delay,
The final PK/PD model for both species was an indirect turnover model with degradation inhibition. The parameters for the final dog and mouse PK/PD models are presented in Table 3 and Supplementary Table S3, respectively.

As to `CCCCOc1cccc(-c2ccc(-c3cc(C(=O)O)c4cc(F)ccc4n3)cc2)c1` [HOSU-53], the “R0 (baseline response, plasma DHO)” value was 0.01 (1.4) umol/L.
